In the supplement of paper PMC10849652:
Some of the results follow.

The chains behind the UniProt entries cited, without tags or fusion partners. Where a name states a change or a piece, a line headed by the entry shows the natural chain unless it says otherwise.
UniProt Q9BQI3, whole entry, looked up: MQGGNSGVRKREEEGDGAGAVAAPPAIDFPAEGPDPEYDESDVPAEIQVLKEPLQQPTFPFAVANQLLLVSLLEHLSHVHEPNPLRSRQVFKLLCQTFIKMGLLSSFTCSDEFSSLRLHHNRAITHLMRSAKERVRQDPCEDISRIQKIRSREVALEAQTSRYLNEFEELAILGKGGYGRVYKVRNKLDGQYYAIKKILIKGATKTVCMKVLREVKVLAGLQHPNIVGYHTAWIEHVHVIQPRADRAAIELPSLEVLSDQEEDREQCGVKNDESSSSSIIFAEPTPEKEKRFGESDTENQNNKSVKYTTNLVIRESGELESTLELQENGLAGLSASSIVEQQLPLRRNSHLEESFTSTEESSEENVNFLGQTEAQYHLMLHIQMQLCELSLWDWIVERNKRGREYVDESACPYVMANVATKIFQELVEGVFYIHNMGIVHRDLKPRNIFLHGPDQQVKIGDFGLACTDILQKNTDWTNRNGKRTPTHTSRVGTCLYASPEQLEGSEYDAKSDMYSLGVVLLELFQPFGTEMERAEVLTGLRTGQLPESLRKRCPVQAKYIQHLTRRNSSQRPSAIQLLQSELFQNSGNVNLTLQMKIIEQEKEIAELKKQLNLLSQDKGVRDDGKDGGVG
UniProt O15372, whole entry, looked up: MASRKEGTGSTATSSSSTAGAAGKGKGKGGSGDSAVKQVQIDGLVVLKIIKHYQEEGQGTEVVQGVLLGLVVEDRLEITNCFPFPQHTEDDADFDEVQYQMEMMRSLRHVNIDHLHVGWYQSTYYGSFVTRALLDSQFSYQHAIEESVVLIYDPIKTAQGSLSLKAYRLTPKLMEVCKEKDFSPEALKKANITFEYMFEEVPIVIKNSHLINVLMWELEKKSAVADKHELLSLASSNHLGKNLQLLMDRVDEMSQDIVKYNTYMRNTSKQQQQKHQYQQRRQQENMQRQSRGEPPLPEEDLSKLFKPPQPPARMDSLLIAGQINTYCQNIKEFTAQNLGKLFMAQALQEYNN
UniProt Q92889: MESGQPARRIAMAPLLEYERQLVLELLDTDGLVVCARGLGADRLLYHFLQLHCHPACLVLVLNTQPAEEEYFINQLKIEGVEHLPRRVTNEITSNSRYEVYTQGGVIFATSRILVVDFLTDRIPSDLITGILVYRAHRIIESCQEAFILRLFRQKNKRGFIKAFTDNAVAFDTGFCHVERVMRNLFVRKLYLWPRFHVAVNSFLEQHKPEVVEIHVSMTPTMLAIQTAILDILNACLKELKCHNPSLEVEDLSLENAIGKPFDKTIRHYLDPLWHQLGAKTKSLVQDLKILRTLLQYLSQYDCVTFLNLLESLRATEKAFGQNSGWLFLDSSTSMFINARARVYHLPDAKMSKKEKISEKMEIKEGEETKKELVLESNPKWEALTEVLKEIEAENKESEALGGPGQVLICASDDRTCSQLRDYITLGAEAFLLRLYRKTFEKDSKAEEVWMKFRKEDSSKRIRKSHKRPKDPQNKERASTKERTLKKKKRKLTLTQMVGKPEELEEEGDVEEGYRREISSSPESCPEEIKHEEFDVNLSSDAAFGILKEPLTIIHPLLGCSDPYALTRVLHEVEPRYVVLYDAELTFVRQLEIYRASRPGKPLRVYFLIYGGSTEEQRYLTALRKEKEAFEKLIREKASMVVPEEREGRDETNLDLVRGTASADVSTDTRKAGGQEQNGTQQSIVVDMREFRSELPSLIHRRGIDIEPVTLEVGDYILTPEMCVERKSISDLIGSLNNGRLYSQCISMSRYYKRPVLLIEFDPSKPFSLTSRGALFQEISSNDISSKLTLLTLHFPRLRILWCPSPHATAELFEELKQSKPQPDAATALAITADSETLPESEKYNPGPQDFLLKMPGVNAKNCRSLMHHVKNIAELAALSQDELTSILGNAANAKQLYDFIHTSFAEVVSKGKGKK
UniProt Q8TE68: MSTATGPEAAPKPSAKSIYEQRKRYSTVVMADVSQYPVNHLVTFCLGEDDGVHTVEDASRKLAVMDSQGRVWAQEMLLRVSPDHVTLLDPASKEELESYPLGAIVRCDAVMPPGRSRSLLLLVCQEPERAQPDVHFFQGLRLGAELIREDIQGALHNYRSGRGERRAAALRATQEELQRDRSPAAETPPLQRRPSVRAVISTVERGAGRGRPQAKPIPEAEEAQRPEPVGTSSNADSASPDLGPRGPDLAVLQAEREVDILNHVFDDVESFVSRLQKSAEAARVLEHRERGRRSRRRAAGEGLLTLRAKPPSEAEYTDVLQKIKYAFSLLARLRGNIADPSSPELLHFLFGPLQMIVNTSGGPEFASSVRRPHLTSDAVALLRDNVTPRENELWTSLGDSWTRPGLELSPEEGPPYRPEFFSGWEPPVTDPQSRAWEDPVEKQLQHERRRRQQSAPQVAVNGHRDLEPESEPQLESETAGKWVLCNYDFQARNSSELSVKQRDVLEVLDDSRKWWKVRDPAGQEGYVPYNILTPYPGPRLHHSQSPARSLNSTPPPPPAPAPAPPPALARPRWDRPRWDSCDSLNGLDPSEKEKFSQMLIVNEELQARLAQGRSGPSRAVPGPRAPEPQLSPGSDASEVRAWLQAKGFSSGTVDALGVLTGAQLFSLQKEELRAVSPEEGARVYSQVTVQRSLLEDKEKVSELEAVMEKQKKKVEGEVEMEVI
UniProt P13929, whole entry, looked up: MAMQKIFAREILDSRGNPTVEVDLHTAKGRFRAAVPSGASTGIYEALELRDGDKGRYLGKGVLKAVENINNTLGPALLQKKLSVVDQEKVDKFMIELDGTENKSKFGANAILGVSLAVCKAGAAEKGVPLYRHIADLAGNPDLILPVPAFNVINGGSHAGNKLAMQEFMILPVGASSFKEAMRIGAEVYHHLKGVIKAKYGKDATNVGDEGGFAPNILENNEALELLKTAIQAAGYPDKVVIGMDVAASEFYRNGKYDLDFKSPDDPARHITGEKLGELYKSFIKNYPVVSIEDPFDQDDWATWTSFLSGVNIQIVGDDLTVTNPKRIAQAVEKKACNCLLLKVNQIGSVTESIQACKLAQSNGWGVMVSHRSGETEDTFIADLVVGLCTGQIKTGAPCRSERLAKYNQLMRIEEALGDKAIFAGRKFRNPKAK
UniProt P55884, whole entry, looked up: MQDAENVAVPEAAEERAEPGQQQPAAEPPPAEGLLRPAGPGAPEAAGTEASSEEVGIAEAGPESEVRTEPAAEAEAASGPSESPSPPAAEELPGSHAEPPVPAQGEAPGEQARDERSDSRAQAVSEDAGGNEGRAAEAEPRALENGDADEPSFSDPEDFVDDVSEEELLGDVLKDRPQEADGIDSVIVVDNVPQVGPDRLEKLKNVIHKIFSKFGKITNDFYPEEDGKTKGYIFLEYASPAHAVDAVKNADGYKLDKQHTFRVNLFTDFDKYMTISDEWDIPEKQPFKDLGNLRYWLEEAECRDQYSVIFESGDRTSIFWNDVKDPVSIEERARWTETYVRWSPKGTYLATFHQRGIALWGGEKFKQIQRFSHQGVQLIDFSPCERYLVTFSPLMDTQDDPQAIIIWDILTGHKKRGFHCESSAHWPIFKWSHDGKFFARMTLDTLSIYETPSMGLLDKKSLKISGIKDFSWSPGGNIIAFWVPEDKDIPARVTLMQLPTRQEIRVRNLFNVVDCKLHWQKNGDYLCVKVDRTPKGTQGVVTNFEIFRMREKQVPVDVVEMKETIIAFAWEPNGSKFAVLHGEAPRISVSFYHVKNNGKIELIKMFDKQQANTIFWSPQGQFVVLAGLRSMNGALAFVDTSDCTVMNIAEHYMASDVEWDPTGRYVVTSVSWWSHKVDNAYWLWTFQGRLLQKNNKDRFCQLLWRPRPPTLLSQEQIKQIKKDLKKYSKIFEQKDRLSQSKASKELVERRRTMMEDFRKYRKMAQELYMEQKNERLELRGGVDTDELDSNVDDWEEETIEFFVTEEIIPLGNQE
UniProt Q52LR7, whole entry, looked up: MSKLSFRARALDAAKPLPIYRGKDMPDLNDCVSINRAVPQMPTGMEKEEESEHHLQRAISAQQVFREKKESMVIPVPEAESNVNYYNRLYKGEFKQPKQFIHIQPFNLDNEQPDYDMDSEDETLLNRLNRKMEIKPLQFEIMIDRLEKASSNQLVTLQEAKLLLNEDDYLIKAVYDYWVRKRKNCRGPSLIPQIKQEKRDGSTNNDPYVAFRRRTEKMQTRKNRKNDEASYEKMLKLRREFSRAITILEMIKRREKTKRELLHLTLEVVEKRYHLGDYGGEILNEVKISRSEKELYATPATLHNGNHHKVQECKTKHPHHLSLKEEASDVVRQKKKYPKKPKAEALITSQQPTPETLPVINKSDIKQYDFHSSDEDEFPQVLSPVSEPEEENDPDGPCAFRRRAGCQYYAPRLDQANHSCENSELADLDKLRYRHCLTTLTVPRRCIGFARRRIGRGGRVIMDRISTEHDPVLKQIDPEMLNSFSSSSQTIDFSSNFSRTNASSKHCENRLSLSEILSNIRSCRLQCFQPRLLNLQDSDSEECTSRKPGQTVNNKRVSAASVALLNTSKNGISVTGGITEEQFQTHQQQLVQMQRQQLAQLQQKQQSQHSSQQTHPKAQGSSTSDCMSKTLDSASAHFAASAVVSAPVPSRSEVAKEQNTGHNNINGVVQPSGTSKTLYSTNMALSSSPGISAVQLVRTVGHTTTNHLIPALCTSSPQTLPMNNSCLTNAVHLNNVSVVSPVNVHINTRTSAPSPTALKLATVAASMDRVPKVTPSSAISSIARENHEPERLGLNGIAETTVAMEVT
UniProt Q9UI10, whole entry, looked up: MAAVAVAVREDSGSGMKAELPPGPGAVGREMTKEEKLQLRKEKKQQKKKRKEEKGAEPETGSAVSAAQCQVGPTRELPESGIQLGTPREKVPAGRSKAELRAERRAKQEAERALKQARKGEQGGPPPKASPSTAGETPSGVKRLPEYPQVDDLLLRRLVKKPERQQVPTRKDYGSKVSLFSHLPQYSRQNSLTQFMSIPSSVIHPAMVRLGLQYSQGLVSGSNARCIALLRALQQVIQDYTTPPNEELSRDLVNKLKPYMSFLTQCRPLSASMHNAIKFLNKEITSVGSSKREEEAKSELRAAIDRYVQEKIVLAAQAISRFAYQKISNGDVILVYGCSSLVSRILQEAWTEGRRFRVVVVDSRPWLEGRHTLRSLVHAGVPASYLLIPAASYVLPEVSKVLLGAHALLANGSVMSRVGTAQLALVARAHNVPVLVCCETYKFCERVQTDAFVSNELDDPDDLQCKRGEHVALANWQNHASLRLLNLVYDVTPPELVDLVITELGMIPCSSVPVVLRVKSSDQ
UniProt O75822, whole entry, looked up: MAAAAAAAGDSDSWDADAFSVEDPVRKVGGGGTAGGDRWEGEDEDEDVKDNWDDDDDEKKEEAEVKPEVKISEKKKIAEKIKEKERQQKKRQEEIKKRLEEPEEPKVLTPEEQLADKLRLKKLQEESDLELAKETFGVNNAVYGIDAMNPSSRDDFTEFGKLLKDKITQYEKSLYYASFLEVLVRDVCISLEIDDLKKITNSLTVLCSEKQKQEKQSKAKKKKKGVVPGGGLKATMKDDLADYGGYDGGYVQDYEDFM
UniProt Q9NQZ7: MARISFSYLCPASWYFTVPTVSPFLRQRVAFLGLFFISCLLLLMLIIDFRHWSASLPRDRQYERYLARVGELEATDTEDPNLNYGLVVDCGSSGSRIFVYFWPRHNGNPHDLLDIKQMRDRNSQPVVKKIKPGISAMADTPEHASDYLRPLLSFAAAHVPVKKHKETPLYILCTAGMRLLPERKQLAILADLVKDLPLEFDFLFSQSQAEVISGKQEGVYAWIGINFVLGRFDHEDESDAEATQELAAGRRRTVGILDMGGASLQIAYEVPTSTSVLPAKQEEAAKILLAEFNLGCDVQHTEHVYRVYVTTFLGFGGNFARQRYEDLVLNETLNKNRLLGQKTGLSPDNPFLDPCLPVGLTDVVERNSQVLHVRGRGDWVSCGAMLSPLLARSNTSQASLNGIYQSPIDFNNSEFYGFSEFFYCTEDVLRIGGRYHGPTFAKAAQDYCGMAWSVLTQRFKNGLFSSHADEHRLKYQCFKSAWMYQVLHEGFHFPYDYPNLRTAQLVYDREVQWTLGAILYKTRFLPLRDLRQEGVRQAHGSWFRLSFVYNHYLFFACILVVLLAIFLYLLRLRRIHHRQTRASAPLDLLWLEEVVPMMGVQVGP
UniProt P19419: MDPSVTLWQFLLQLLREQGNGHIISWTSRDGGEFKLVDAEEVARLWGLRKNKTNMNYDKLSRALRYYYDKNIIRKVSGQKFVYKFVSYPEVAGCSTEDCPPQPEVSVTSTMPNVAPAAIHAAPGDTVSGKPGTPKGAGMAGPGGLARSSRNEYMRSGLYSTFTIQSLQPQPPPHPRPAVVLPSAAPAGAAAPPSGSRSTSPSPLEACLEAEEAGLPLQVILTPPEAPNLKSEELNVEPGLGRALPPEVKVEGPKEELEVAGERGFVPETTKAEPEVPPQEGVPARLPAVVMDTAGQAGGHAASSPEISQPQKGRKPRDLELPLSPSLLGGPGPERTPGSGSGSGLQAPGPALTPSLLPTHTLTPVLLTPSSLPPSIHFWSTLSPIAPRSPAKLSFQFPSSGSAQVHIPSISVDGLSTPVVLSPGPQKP

Assays:
Test in all cases: log2 fold change, soluble protein after heating vs DMSO (PISA); higher = thermal stabilisation; K562 lysate, 10 uM; active = over 0.2 and 3.5 SD of the protein, either way, in both replicates (recomputed)
[1] = compound: CCCS(=O)(=O)Nc1ccc(F)c(C(=O)c2c[nH]c3ncc(-c4ccc(Cl)cc4)cc23)c1F [vemurafenib]
Procedure, shortened: (§1)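 To prepare the extract, K562 pellets were dounce-homogenised in PBS pH 7.4 with 1 mM MgCl2, giving crude material at 1 mg/mL protein. This was treated with 10 μM compound for 30 min, then heated in aliquots for 3 min over 48°C-58°C before pooling and addition of NP-40 to 0.5% at 4°C. Centrifugation at 21,000xg for 90 min left soluble protein in the supernatant, which TMTpro 16plex LC-MS/MS quantified with equalised channel sums. Results are log-two fold changes in thermal stability compared with solvent controls, from duplicates.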

[2] = compound: CCCS(=O)(=O)Nc1ccc(F)c(C(=O)c2c[nH]c3ncc(Cl)cc23)c1F
Procedure, shortened: as §1

[3] = compound: CCN(CCCOc1ccc2c(Nc3cc(CC(=O)Nc4cccc(F)c4)[nH]n3)ncnc2c1)CCOP(=O)(O)O [barasertib]
Procedure, shortened: as §1

[4] = compound: CC[C@@H]1C(=O)N(C)c2cnc(Nc3ccc(C(=O)NC4CCN(C)CC4)cc3OC)nc2N1C1CCCC1
Procedure, shortened: as §1

[5] = compound: CC[C@@H]1C(=O)N(C)c2cnc(Nc3ccc(C(=O)N[C@H]4CC[C@H](N5CCN(CC6CC6)CC5)CC4)cc3OC)nc2N1C(C)C [volasertib]
Procedure, shortened: as §1

[6] = compound: CCn1c(C(=O)N(C2CC2)C2CC2)cc2c3c(ncn3C)c(Nc3cc(C)n(C)n3)nc21
Procedure, shortened: as §1

[7] = compound: CCn1cc(-c2ccnc3[nH]c(-c4cccc(CN(C)C)c4)cc23)c(-c2ccc(NC(=O)N(C)C)cc2)n1
Procedure, shortened: as §1

[8] = compound: CN1CCC(CNc2ccc3ncc(-c4cccc(OC(F)(F)F)c4)n3n2)CC1
Procedure, shortened: as §1

[9] = compound: CN1CCN(CCOc2cc(OC3CCOCC3)c3c(Nc4c(Cl)ccc5c4OCO5)ncnc3c2)CC1 [saracatinib]
Procedure, shortened: as §1

[10] = compound: CN1CCN(c2nc(C3=C(c4c[nH]c5ccccc45)C(=O)NC3=O)c3ccccc3n2)CC1 [sotrastaurin]
Procedure, shortened: as §1

Measured: log2 fold change

EIF2AK1 (UniProt Q9BQI3)
active: [5] -0.287
inactive: [1] -0.004 | [2] -0.05 | [3] 0.019 | [4] -0.016 | [6] -0.002 | [7] -0.001 | [8] -0.037 | [9] -0.019 | [10] 0

EIF3H (UniProt O15372)
inactive: [1] 0.011 | [2] 0.003 | [3] -0.008 | [4] 0.069 | [5] 0.005 | [6] -0.012 | [7] -0.058 | [8] 0.031 | [9] 0.002 | [10] 0.022

ERCC4 (UniProt Q92889)
inactive: [1] 0.071 | [2] 0.01 | [3] 0.163 | [4] 0.144 | [5] -0.006 | [6] 0.004 | [7] -0.078 | [8] 0.114 | [9] 0.016 | [10] 0.047

EPS8L1 (UniProt Q8TE68)
inactive: [1] -0.01 | [3] 0.102 | [4] -0.073 | [6] 0.038 | [7] 0.068 | [8] -0.11 | [9] 0.017 | [10] -0.117

ENO3 (UniProt P13929)
inactive: [1] -0.01 | [2] 0.033 | [3] 0.008 | [4] -0.073 | [5] -0.011 | [6] 0.082 | [7] -0.289 | [8] 0.249 | [9] -0.228 | [10] -0.006

EIF3B isoform 2 (UniProt P55884)
inactive: [1] -0.007 | [2] 0 | [3] 0.003 | [4] -0.043 | [5] -0.021 | [6] 0.008 | [7] 0 | [8] -0.007 | [9] -0.016 | [10] 0.01

EPB41, A0A2R8Y783
inactive: [1] 0.129 | [2] 0.063 | [3] 0.112 | [4] -0.141 | [5] 0.057 | [7] -0.136 | [8] -0.048 | [9] 0.075

EPHX1 (UniProt P07099)
inactive: [1] -0.016 | [2] 0.021 | [3] 0.023 | [4] 0.005 | [5] 0.01 | [6] -0.017 | [7] -0.02 | [8] 0.063 | [9] 0.006 | [10] 0.025

EPC2 (UniProt Q52LR7)
inactive: [1] 0.125 | [2] 0.107 | [3] -0.168 | [4] -0.056 | [5] -0.497 | [9] 0 | [10] 0.016

2 records picked at random from those above:
EPC2 (UniProt Q52LR7)
inactive: [1] 0.125 | [2] 0.107 | [3] -0.168 | [4] -0.056 | [5] -0.497 | [9] 0 | [10] 0.016

EPS8L1 (UniProt Q8TE68)
inactive: [1] -0.01 | [3] 0.102 | [4] -0.073 | [6] 0.038 | [7] 0.068 | [8] -0.11 | [9] 0.017 | [10] -0.117

(next part)

EIF2B4 (UniProt Q9UI10)
inactive: [1] -0.064 | [2] 0.026 | [3] 0.006 | [4] 0.04 | [5] -0.032 | [6] 0.048 | [9] 0.042 | [10] 0.047

EIF3J isoform 2 (UniProt O75822)
inactive: [1] 0.157 | [2] 0.017 | [4] -0.002 | [5] 0.016 | [6] -0.045 | [7] 0.313 | [8] -0.204

EIF3I (UniProt Q13347)
inactive: [1] 0.017 | [2] 0.025 | [3] 0.017 | [4] -0.113 | [5] -0.078 | [6] 0.011 | [7] -0.034 | [8] -0.03 | [9] -0.008 | [10] 0.027

ENTPD7 (UniProt Q9NQZ7)
inactive: [1] 0.02 | [2] -0.097 | [4] 0.084 | [5] -0.263 | [7] 0.097 | [8] 0.087

ELP3 (UniProt Q9H9T3)
inactive: [1] -0.004 | [2] 0.019 | [3] 0.018 | [4] -0.016 | [5] -0.02 | [6] -0.012 | [7] -0.005 | [8] 0.002 | [9] -0.019 | [10] 0.011

ELK1 (UniProt P19419)
inactive: [1] 0.128 | [3] 0.227 | [4] -0.04 | [6] -0.006 | [7] -0.028 | [8] -0.081 | [9] 0.003

EMC2 (UniProt Q15006)
inactive: [1] -0.011 | [2] -0.023 | [3] 0 | [4] -0.058 | [5] -0.027 | [6] 0.008 | [7] -0.036 | [8] -0.036 | [9] 0.029 | [10] 0.053

ELAVL4 (UniProt P26378)
inactive: [1] -0.045 | [2] 0.035 | [4] -0.119 | [5] -0.038 | [6] 0.054 | [7] -0.006 | [8] 0.029 | [9] -0.052 | [10] 0
